The target in the test is T1, NOX4 (mouse (endogenous in bEnd.3)) (UniProt Q9JHI8).
T1 sequence: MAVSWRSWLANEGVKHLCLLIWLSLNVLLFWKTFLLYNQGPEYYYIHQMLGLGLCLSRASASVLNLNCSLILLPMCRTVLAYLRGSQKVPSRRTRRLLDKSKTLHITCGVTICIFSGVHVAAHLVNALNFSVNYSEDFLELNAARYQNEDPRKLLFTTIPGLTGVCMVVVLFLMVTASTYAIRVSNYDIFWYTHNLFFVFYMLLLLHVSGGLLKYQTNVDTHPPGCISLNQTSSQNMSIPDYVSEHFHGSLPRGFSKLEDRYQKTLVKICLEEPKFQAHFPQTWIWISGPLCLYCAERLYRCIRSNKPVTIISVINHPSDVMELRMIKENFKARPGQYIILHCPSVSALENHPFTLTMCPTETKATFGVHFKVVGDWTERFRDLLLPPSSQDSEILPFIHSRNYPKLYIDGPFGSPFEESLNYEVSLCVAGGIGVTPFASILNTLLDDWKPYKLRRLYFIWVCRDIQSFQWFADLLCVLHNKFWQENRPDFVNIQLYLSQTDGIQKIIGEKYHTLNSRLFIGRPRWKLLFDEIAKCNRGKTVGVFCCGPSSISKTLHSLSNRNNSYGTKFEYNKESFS
Put plainly: co-IP; bEnd.3 cells after OGD and reperfusion, with or without SCM-198; lysed in RIPA buffer, precleared with normal IgG; 0.5 mg lysate protein incubated overnight at 4°C with anti-NOX4 and anti-p-STAT3, protein A/G Plus-Agarose 1 h at 4°C; western blot. For orientation: A western blot detects proteins with antibodies after separation by electrophoresis.

By UniProt entry, the sequences of proteins in these tests, tags left out.
UniProt P42227: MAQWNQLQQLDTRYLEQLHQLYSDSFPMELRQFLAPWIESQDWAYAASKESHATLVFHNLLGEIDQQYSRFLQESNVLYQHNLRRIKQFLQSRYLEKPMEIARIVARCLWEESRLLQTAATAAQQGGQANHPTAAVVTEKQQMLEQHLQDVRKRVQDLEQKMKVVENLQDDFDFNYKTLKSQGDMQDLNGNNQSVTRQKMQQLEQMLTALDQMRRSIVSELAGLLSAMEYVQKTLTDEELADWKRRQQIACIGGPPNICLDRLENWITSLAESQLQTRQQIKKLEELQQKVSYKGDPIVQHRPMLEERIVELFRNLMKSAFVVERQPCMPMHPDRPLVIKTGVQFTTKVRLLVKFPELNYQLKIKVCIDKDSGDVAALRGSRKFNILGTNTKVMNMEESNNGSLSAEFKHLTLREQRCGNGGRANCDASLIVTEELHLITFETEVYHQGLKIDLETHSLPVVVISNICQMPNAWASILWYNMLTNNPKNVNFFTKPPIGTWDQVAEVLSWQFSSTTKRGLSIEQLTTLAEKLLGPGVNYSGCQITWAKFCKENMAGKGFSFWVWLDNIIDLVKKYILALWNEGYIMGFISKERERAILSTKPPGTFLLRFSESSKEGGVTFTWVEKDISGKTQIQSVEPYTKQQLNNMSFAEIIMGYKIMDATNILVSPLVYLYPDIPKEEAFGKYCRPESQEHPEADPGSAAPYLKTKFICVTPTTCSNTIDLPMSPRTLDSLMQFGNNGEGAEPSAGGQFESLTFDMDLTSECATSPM

No constants are given. Whether binding was seen depends on the method and setting. Binding seen in cells or lysates may run through a third protein. Some results given as binding are weak or reduced against the parent protein; the word gives no strength.

Consider p-STAT3 (from UniProt P42227 1-770), for which the binding result is recorded as “binds”.

Source of the values: PMC6885260.
